PMC12040169 (PLOS Biology, 2025)
Some of the results follow.

Tested on: T1, CTL2-GFP (C. trachomatis L2/434/Bu, GFP-expressing)
T1 construct: L2/434/Bu, GFP-expressing
Set-up: species or system HeLa; Intracellular C. trachomatis growth in HeLa cells, bulk GFP fluorescence relative to DMSO
Conditions: bulk GFP, single well; 28.5 h, 10 µM; inhibitor

| Structure (SMILES) | % of control remaining [%] |
| --- | --- |
| O=C(O)CCCn1cc(NC(=O)CCc2ccccc2)cn1 [CBK287055] | 146.666 |
| CC(C)N1C(=O)C2(CC(=O)N(CCCN3C(=O)c4ccccc4C3=O)C2=O)c2cc(F)ccc21 (stereo not drawn) [CBK075969] | 110.255 |
| COc1ccccc1-c1nccnc1OCCc1ccc(NC(C)=O)cc1 [CBK106815] | 99.2891 |
| O=C(O)C1CCCCC1C(=O)Nc1ccc(S(=O)(=O)N2CCCCC2)cc1 (stereo not drawn) [CBK267950] | 103.985 |
| COc1ccc(CCN(Cc2ccc(Cl)c(Cl)c2)C(=O)Nc2cccnc2)cc1OC [CBK158797] | 110.631 |
| Cc1c(C(=O)N2CCCCC2C(N)=O)nnn1-c1cccc(Cl)c1 (stereo not drawn) [CBK305490] | 117.23 |
| O=C(c1ccco1)N1CCC(n2nc(C3CC3)ccc2=O)CC1 [CBK282350] | 112.606 |
| COc1ccccc1NC(=O)NC(=O)C1CCN(C(C)=O)CC1 [CBK034853] | 98.3456 |
| COc1ccc(Nc2cc(-n3nc(C)cc3-c3ccccc3)ncn2)cc1 [CBK293925] | 100.374 |
| Cc1ccc(Cn2ccsc2=NC(=O)c2cc(S(=O)(=O)N3CCOCC3)ccc2C)cc1 [CBK296935] | 82.3303 |
| Cc1cc(CN2CCN(C(=O)NCc3cccnc3)CC2)on1 [CBK305627] | 145.919 |
| COc1cc2c(c(OC)c1OC)CC(=O)NC21CCN(C(=O)NC(C)(C)C)CC1 [CBK047301] | 100 |
| CC(c1ccccc1)C(CC(=O)O)C(=O)NCc1ccccc1 (stereo not drawn) [CBK286830] | 107.398 |
| COc1cccc(OC)c1-c1cn2ccnc2c(NCc2ccccn2)n1 [CBK037439] | 164.904 |
| O=C(O)CCCn1cc(NC(=O)c2cccc(F)c2)cn1 [CBK270051] | 128.628 |
| O=C(O)C1CCC(CNc2ccc([N+](=O)[O-])cn2)CC1 (stereo not drawn) [CBK286626] | 125.166 |
| Cc1nc2c(C)cccc2c(O)c1CN1CCCCCC1 [CBK264512] | 135.299 |
| CCN(CC)c1nc(Cl)c(C#N)c2c1CN(C)CC2 [CBK009140] | 125.211 |
| O=C1COc2ccccc2C/C=C/C[C@H]2CN(C(=O)Cn3ncc4ccccc4c3=O)CC[C@H]2N1 [CBK292084] | 107.476 |
| Cc1cccc(C)c1NC(=O)CC1Sc2ccccc2NC1=O (stereo not drawn) [CBK267160] | 167.98 |

| Structure (SMILES) | % of control remaining [%] |
| --- | --- |
| Cc1oc(NC(=O)CN2CCN(c3ncccn3)CC2)c(C#N)c1C [CBK305569] | 114.069 |
| O=C(CN1CCCCC1)Nc1c(-c2ccccc2)c2cc(Br)ccc2[nH]c1=O [CBK263351] | 116.702 |
| CC(=O)C(Sc1nc(NC(C)C)nc(N(C)C)n1)C(C)=O [CBK269811] | 117.307 |
| O=C(O)c1ccc(-n2nnnc2SCc2ccccc2)cc1 [CBK287161] | 108.969 |
| COc1ccc(CN2CCN(Cc3ccc4c(c3)OCO4)CC2)c(OC)c1OC [CBK033874] | 109.212 |
| CCCN1CCC(NC(=O)c2cccc(S(N)(=O)=O)c2)CC1 [CBK305956] | 134.812 |
| CN(C(=O)Cc1ccsc1)c1nc2c(s1)CCc1c-2cnn1C [CBK281929] | 47.0702 |
| O=C1c2ccc(Oc3ccc4c(c3)C(=O)N(c3ccccn3)C4=O)cc2C(=O)N1c1ccccn1 [CBK261202] | 100 |
| Cc1ncsc1C(=O)NCc1ccc(S(=O)(=O)N2CCCCC2)cc1 [CBK305556] | 137.278 |
| COc1cccc(C(=O)N2CCCC(c3cc4ncccc4[nH]3)C2)c1 (stereo not drawn) [CBK283416] | 92.3473 |
| CN(c1cc(F)ccc1[N+](=O)[O-])S(=O)(=O)c1ccccc1 [CBK001369] | 103.054 |
| O=S(=O)(Oc1ccc2ccccc2c1)c1ccc2c(c1)Cc1cc(S(=O)(=O)Oc3ccc4ccccc4c3)ccc1-2 [CBK262385] | 95.0267 |
| Cc1ccc(C(C)C)c(OCC(=O)NS(=O)(=O)c2ccc(Br)cc2)c1 [CBK268719] | 153.943 |
| Cc1nnnn1CC(=O)Nc1nn(C)c2cccc(N3CCOCC3)c12 [CBK307335] | 122.776 |
| Cn1ccnc1CNC(=O)c1cccc(OCC(=O)N2CCCCC2)c1 [CBK306635] | 123.198 |
| Oc1ccc2ccccc2c1/C=N/Nc1nnc(-c2ccccc2)c(-c2ccccc2)n1 [CBK262005] | 115.633 |
| O=C(N[C@@H](Cc1ccc(OCc2ccc(Cl)cc2Cl)cc1)C(=O)O)C1CCCC1 [CBK017610] | 137.485 |
| Cc1ccc(S(=O)(=O)c2ccc(C)c(S(=O)(=O)N3CCCC3)c2)cc1S(=O)(=O)N1CCCC1 [CBK261772] | 100 |
| O=S(=O)(Nc1cccc(C(F)(F)F)c1)c1cc2c(N3CCNCC3)nccc2s1 [CBK039085C] | 86.7988 |

Nothing new here: entries from further up.

| Structure (SMILES) | % of control remaining [%] |
| --- | --- |
| CC(c1ccccc1)C(CC(=O)O)C(=O)NCc1ccccc1 (stereo not drawn) [CBK286830] | 107.398 |
| COc1cccc(OC)c1-c1cn2ccnc2c(NCc2ccccn2)n1 [CBK037439] | 164.904 |
| O=C(O)CCCn1cc(NC(=O)c2cccc(F)c2)cn1 [CBK270051] | 128.628 |
| O=C(O)C1CCC(CNc2ccc([N+](=O)[O-])cn2)CC1 (stereo not drawn) [CBK286626] | 125.166 |
| Cc1nc2c(C)cccc2c(O)c1CN1CCCCCC1 [CBK264512] | 135.299 |
| CCN(CC)c1nc(Cl)c(C#N)c2c1CN(C)CC2 [CBK009140] | 125.211 |
| O=C1COc2ccccc2C/C=C/C[C@H]2CN(C(=O)Cn3ncc4ccccc4c3=O)CC[C@H]2N1 [CBK292084] | 107.476 |
| Cc1cccc(C)c1NC(=O)CC1Sc2ccccc2NC1=O (stereo not drawn) [CBK267160] | 167.98 |
